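Whole-parasite assay of Trypanosoma brucei over 72 hours; the read-out is not stated. Compounds at 30 µM. The record gives no direction; compounds that gave an IC50 in retests scored well above the rest, so higher reads as stronger inhibition. Values scatter widely below zero; nearly all retest evidence comes from the higher of the two concentrations used. About 64,000 compounds were tested under these conditions; 1.5% (about 940) showed 50% or more at least once.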

Each number is a percent effect as filed.
The record does not define 0% and 100%; most values in the screen are far below 50% and negative numbers occur (in some assays of this library far below -100).
The compounds are a random part of those screened.

Compound	Percent Effect
CN1CCC(Cc2noc(-c3cn(Cc4ccccc4Cl)nn3)n2)CC1	-19.02
CC(C)n1c2ccccc2c2c1cc(C(=O)O)n2C(=O)N(C)C	-10.06
Cc1cnc(N2C(=O)CSC2c2cccs2)s1 (centres unmarked)	-21.72
CSc1cccc(NC(=O)N2CCCC(CNC(=O)c3ccco3)C2)c1 (centres unmarked)	21.5
COCCN(Cc1cccs1)C(=O)C1CCCN(C(N)=O)C1 (centres unmarked)	-63.9
CC1CCC(O)(CN2CCN(CCNC(=O)C3CCC3)CC2)CC1 (centres unmarked)	-32.77
Cc1cccc(C(=O)NCc2ccnc(N(C)C)c2)n1	-2.346
COCC1CC2(CCN(C(=O)c3occc3C)CC2)CN1C(C)C.O=C(O)C(F)(F)F (centres unmarked)	-8.924
CN(C)C(CNc1c(NCc2ccco2)c(=O)c1=O)c1ccccc1 (centres unmarked)	-30.54
COC(=O)c1ccc(C(=O)NCc2ccco2)nc1	-73.37
Cc1nc(C2CCCNC2)cc(N(Cc2nccn2C)C2CC2)n1 (centres unmarked)	-47.82
COc1ccc(C2(NC(=O)c3ccc(=O)n(C)n3)CCCC2)cc1	-5.624
Cc1noc(CCCC(=O)N(CCC(=O)O)Cc2ccc(F)c(F)c2)n1	-35.6
CN(C)c1nc2sc(C(=O)N3CCNC(=O)CC3)cc2s1	-92.9
Cc1nc(NC(=O)CN2CCc3c(nc(C(C)C)n3C)C2)sc1C	0.5485
O=C(O)c1cc(NS(=O)(=O)c2ccccc2F)ccc1N1CCSCC1	-5.182
CCOCCCC(=O)N1CCN(C(=O)Cc2cccc(OC)c2)CC1	-14.89
Cc1c(C(=O)O)nnn1-c1cccc2cccnc12	-28.9
c1ccc2oc(N3CCCCC3Cn3cncn3)nc2c1 (centres unmarked)	-6.939
COc1cccc(C(=O)NCC2CCN(C(=O)c3ccoc3)CC2)c1	-0.9601
Cc1ccc(C(=O)N2CCCN(Cc3cccs3)CC2)c(=O)[nH]1	0.6841
CN(C)CCn1cc(NC(=O)NC(C)(C)c2nccs2)cn1	-28.75
CN(C)C(C(=O)N1CCCC1)c1ccccc1F (centres unmarked)	14.86
CC(=O)N1CCCN(C(C(=O)O)c2ccccc2OC(F)(F)F)CC1 (centres unmarked)	-7.877
CN(C)c1nc(CNC(=O)NC2CCc3ccccc32)cs1 (centres unmarked)	2.593
CN(C)C(=O)c1n[nH]c2c1CN(Cc1ccccn1)CC2.O=C(O)C(F)(F)F	-23.6
CN(C)C(=O)Cc1ccccc1NCc1cccc2cccnc12	4.964
CC(C)Cc1cn(C2CCN(C(C)CCn3cccn3)CC2)nn1 (centres unmarked)	-2.324
O=C(NC1CCNC1)C1(N2CCCCC2)Cc2ccccc2C1 (centres unmarked)	-4.18
CC(C)(C)n1cc(C(=O)N2CCN(Cc3ccco3)CC2)cn1	9.214
COc1ncccc1CNC(=O)NC(C)Cn1cccn1 (centres unmarked)	1.752
CS(=O)(=O)N1CC(c2nc[nH]n2)c2cc(C(=O)NC3CCCC3)ccc21 (centres unmarked)	-5.414
[H][C@@]12CC[C@H](Oc3ccccc3F)[C@]1([H])CN(C(=O)c1cnco1)C2	-28.58
CN(C)C(=O)CN1CCCC2(CCN(c3ccsc3)C2=O)C1.O=C(O)C(F)(F)F (centres unmarked)	-13.4
O=C(O)C(F)(F)F.[H][C@]12C[C@H](C(=O)NCC3CC3)N(C(C)=O)[C@@]1([H])CN(Cc1nccs1)C2	-16.07
Cc1cc2ccccc2n1CC(=O)NCC(=O)N1CCOCC1	3.314
[H][C@@]12C[C@H](C)O[C@]1([H])CCN(C(=O)COC)C2	-22.84
COc1cccc(CN2CCCC2c2c(C)nn(C)c2C)c1 (centres unmarked)	-36.92
Cn1cc(CN2CCn3cc(CNC(=O)CC4CC4)nc3C2)cn1.O=C(O)C(F)(F)F	-15.54
COCC(=O)N1CCCC1c1ccnc(Nc2cnccn2)n1 (centres unmarked)	19.17
CN(C)C(=O)CN1CCc2ncnc(N(C)C)c2CC1.O=C(O)C(F)(F)F	-86.5
Cn1cc(C2CCCN2C(=O)CCCOc2ccc(F)cc2)cn1 (centres unmarked)	-31.54
CS(=O)(=O)NC[C@]1(O)CCN(C(=O)Cc2cccs2)C[C@H]1O	-8.616
COCCNC(=O)CCc1c(C)nn(-c2nc(C)c(C)c(=O)[nH]2)c1C	21.49
Cc1ccc(C)c(C(O)CN(C)Cc2nnc3ccccn23)c1 (centres unmarked)	-2.966
O=C(CC1=CCCCC1)Nc1ccc(CN2C(=O)CCC2=O)cc1	-25.78
Cc1ccc(NS(C)(=O)=O)c(C(=O)NCCC(=O)NC(C)C)c1	-26.48
Cc1cc(C(F)(F)F)nc(N2CCN3CCCC3C2)n1 (centres unmarked)	-21.31
COCc1ccc(C(=O)N2CCC(c3nccn3CC3CC3)CC2)o1	-30.84
COc1ccccc1CC(=O)N1CCN(Cc2ccco2)C[C@@H]1C	4.228
CC(C)c1cc(NC(=O)CN2CCC(N3CCNC3=O)CC2)on1	-5.68
Cc1cc(N(C)C)nc(N2CC(n3cccn3)C2)n1	-52.09
Cc1nc(C)c(CN(C)C2CCN(C(=O)OC(C)(C)C)CC2)s1	-8.385
CCCc1nnsc1C(=O)N1CCN(CC(C)O)CC1.Cl (centres unmarked)	6.442
CCC(Nc1nc(C(C)C)nc2c1cnn2C)c1ccncc1 (centres unmarked)	-8.061
COc1ccccc1N1CCCC(Nc2nccnc2C#N)C1 (centres unmarked)	-26.82
Cc1ccnc(CC(C)N(C)Cc2ccc3c(c2)CCO3)c1 (centres unmarked)	-20.63
CC(NC1CCN(CCS(C)(=O)=O)CC1)c1ccc(Cl)cc1 (centres unmarked)	-9.611
Clc1ccc(-c2nc(CN3CCCC3Cn3cncn3)co2)cc1 (centres unmarked)	-1.808
CCc1ccc(CNC(=O)Cn2ccc3sccc3c2=O)cc1	-5.406
Cl.O=C(CCN1CCCC1)Nc1c2c(cc3c1CCC3)CCC2	0.04304
O=C(NCC(O)CO)Nc1cc(Br)ccc1F (centres unmarked)	-14.7
Cc1cc2nc(-c3cn(C4CCNCC4)nn3)[nH]c2cc1C	-20.73
Cc1ccc(N2CCCN(C(=O)c3c(C)oc(C)c3C)CC2)nn1	-11.12
Cn1cc(C2CCCN2C(=O)CCCc2cccs2)cn1 (centres unmarked)	-12.71
CN(C)C1(CNC(=O)Cc2ccc(F)cc2)CCOCC1	15.4
[H][C@@]12C[C@H](C(=O)NCC(C)C)[C@@]([H])(CN(c3ncc(CC)cn3)C1)O2	10.07
CCC(CC)c1cc(C(=O)N2CCN(C(C#N)C(C)C)CC2)on1 (centres unmarked)	-4.314
Cc1noc(CN2CCN(CCO)CC2)n1	-52.44
N#Cc1cn(C2CC2)c(=O)n(CC(O)c2ccc(OC(F)F)cc2)c1=O (centres unmarked)	-0.7683

8 of the entries, repeated:

- COCc1ccc(C(=O)N2CCC(c3nccn3CC3CC3)CC2)o1 | -30.84%
- Cc1nc(C)c(CN(C)C2CCN(C(=O)OC(C)(C)C)CC2)s1 | -8.385%
- Cc1ccc(C)c(C(O)CN(C)Cc2nnc3ccccn23)c1 (centres unmarked) | -2.966%
- CN(C)C(=O)Cc1ccccc1NCc1cccc2cccnc12 | 4.964%
- O=C(O)c1cc(NS(=O)(=O)c2ccccc2F)ccc1N1CCSCC1 | -5.182%
- CS(=O)(=O)NC[C@]1(O)CCN(C(=O)Cc2cccs2)C[C@H]1O | -8.616%
- CCC(Nc1nc(C(C)C)nc2c1cnn2C)c1ccncc1 (centres unmarked) | -8.061%
- CN(C)CCn1cc(NC(=O)NC(C)(C)c2nccs2)cn1 | -28.75%

Source: ChEMBL document CHEMBL3988442, “University of Dundee, Small-Polar-MMV Screening Library” (2021).